In PubChem BioAssay AID493014 (National Center for Advancing Translational Sciences (NCATS), 2011):
“And” between values parts separate entries of the source, which are not always exact repeats. Equal entries are not always repeated. The list shows a part of the results. Further columns of the screen follow, without active or inactive calls. Most of these compounds were active or inconclusive in the main read-out, so they are no random draw. Potencies come from curve fits of mixed quality, noted in brackets.

Assay: qHTS Assay to Find Inhibitors of Chronic Active B-Cell Receptor Signaling
Details: ABC-DLBCL IkBa-CBG/CBR reporter, luminescence ratio (green luciferase fused to IkBa over red control in TMD8 lymphoma cells), 4 h
How it was run: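 Compounds up to 46 uM were incubated four hours with TMD8 cells whose green CBG68 luciferase is fused to IkappaBalpha; red CBR luminescence normalised the signal, and concentration-effect curves were fitted to fusion, red and ratio data.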

[1] = measured here: CBR red luminescence, cell number
[2] = measured here: IkBa-CBG green luminescence

Compound	AC50 [1]	AC50 [2]
CC(C)c1ccc(-n2c(O)c(/C=N/NC(=O)c3ccccc3O)c(=O)[nH]c2=S)cc1	0.447 µM [falling, full curve]	
Cn1cc(C(=O)OCC(=O)NC2(C#N)CCCC2)c2ccccc21	0.517 µM [rising, full curve, poor fit]	
Cc1cc(C)nc(NC2=NCCS2)n1	0.631 µM [rising, full curve, poor fit]	
Cc1ccsc1/C=C1\SC(=S)N(CC2CCCO2)C1=O (stereo not given)	4.47 µM [rising, partial curve, poor fit]	
COc1ccccc1CN1CCN(C(=O)Cc2ccccc2)CC1	35.5 µM [rising, partial curve, poor fit]	
CC(=O)c1cccc(NC2=NCC(C)S2)c1 (stereo not given)	6.51 µM [falling, single point]	
CCCCSC1=NN1c1nc(N)nc(C)c1CC	0.206 µM [falling, partial curve, poor fit]	
CC(C)c1ccc(NC(=O)[C@H](Cc2c[nH]c3ccccc23)NC(=O)[C@@H]2Cc3ccccc3CN2)cc1	11.2 µM [falling, partial curve, poor fit]	
CN(C)c1ccc(P(=O)(OCc2ccccc2)C(O)c2ccccc2F)cc1 (stereo not given)	5.62 µM [rising, single point]	
COc1ccc(C2SCC(=O)Nc3c2c(C)nn3-c2ccccc2)cc1 (stereo not given)	20.6 µM [rising, single point]	
CCOc1cc(/C=C2/C(=O)NC(=O)N(c3ccc(CC)cc3)C2=O)ccc1OC(=O)c1cccs1	35.5 µM [rising, single point]	
O=C1/C(=C\c2cc3c(cc2Br)OCO3)N2CCC1CC2	20.6 µM [falling, single point]	
COC(=O)C1=C(c2ccc(F)cc2OCc2ccccc2)C[C@@H]2CC[C@H]1N2C(=O)NC1Cc2ccccc2C1	0.731 µM [rising, full curve]	
Cc1ccc(C2N3CCCN23)cc1 (stereo not given)	3.16 µM [rising, partial curve, poor fit]	
Cc1ccc(-c2cc(-c3ccc(C)cc3)[n+](-c3ccccc3)c(-c3ccc(C)cc3)c2)cc1	6.51 µM [falling, partial curve]	
Clc1ccc2c(c1)C(c1ccccc1Cl)=NCc1nnc(Br)n1-2	18.4 µM [falling, single point]	23.1 µM [rising, partial curve, poor fit]
CC12CC[C@H]3[C@@H](CCC4(O)C[C@H](O)CCC34/C=N/NC(=O)c3ccccc3Cl)C1(O)CCC2C1=CC(=O)OC1 (stereo not given in full)	3.16 µM [falling, full curve, poor fit]	
COc1ccc(Cc2nccc3cc(OC)c(OC)cc23)cc1OC	11.2 µM [rising, partial curve, poor fit]	18.4 µM [falling, partial curve]
O=C(O)Cn1cc(/C=C2\C(=O)NC(=O)N(c3ccc(Br)cc3)C2=O)c2ccccc21	35.5 µM [rising, single point]	
CC1CCC[C@H](O)CCCCCc2cc(O)cc(O)c2C(=O)O1 (stereo not given in full)	11.6 µM [falling, partial curve, poor fit] and 10 µM [falling, partial curve, poor fit]	
CN(C)CC1CCCCC1=O (stereo not given)	35.5 µM [falling, single point]	

Compound	AC50 [1]	AC50 [2]
Cc1nc(Cl)sc1C(=O)Nc1ccc2ccccc2c1	23.1 µM [falling, partial curve, poor fit]	
O=C(N/N=C/c1c(O)n(CCC2=CCCCC2)c(=S)[nH]c1=O)c1ccccc1	4.61 µM [falling, partial curve]	
COc1cc(C(=O)N/N=C/c2ccc(OC(=O)N3CCOCC3)cc2)cc(OC)c1OC	23.1 µM [rising, partial curve]	
N#CC1=C(N)Oc2c(c(=O)oc3ccccc23)C1c1ccc([N+](=O)[O-])o1 (stereo not given)	35.5 µM [falling, partial curve, poor fit]	
COc1ccccc1CCNC1CCC(C(C)(C)C)CC1 (stereo not given)	35.5 µM [falling, single point]	
O=C(COC(=O)Cc1ccccc1)Nc1cc(S(=O)(=O)N2CCOCC2)ccc1N1CCCC1	20.6 µM [falling, single point]	29.1 µM [rising, partial curve, poor fit]
COc1ccc(-n2c(SC)nc3ccccc3c2=O)cc1	0.562 µM [rising, full curve, poor fit]	
O=c1c2ccccc2nc(N2CCCC2)n1-c1ccc(Cl)cc1	14.1 µM [falling, partial curve, poor fit]	
CCC1(CC)C(=O)C=CNC1=O	25.9 µM [rising, partial curve, poor fit]	
CCN1/C(=C\C=C\C2=[N+](CC)c3ccccc3C2(C)C)C(C)(C)c2ccccc21		13 µM [rising, partial curve, poor fit]
COc1ccc(C)cc1S(=O)(=O)N1CCCC(C(=O)N2CCN(c3ccccc3)CC2)C1 (stereo not given)	22.4 µM [falling, single point]	
CC1CCC(C(C)C)C(OC(=O)Cn2c(COc3ccccc3)[n+](C)c3ccccc32)C1 (stereo not given)	25.1 µM [falling, single point]	
CN(C)C(=O)Oc1ccc(Br)cc1C(=O)Nc1ccc(F)c(Cl)c1	2.51 µM [falling, partial curve]	
O=C1NC(=O)N(Cc2ccc(F)cc2)C(=O)/C1=C\c1ccc([N+](=O)[O-])s1	0.0891 µM [falling, full curve, poor fit]	
O=C(CN1CCOCC1)c1ccc2cc[nH]c2c1	23.1 µM [falling, single point]	
CC1CCCN(CC(=O)c2ccc(Cl)c(Cl)c2)C1 (stereo not given)	0.501 µM [falling, full curve, poor fit]	
CCOc1cc2[nH]c(=S)n(CCCC(=O)N3CCC4(CC3)OCCO4)c(=O)c2cc1OCC	13 µM [falling, partial curve, poor fit]	
O=C(OCC(=O)c1ccc([N+](=O)[O-])cc1)/C(=C\c1ccc(Cl)cc1)NC(=O)c1ccccc1	20 µM [falling, single point]	
COc1ccc(-n2c(Cc3cccc([N+](=O)[O-])c3)nc3ccccc3c2=O)cc1	20.6 µM [falling, partial curve, poor fit]	
COc1ccc(Cn2c(N)c(C(=O)NCc3ccco3)c3nc4ccccc4nc32)cc1OC	7.08 µM [falling, partial curve, poor fit]	
Cn1cc(/C=C2\C(=O)NC(=O)N(c3ccccc3)C2=O)c2ccccc21	3.98 µM [rising, full curve, poor fit]	

At a glance, 5 of the compounds above:
Compound	AC50 [1]	AC50 [2]
CCC1(CC)C(=O)C=CNC1=O	25.9 µM [rising, partial curve, poor fit]	
CCN1/C(=C\C=C\C2=[N+](CC)c3ccccc3C2(C)C)C(C)(C)c2ccccc21		13 µM [rising, partial curve, poor fit]
COc1ccc(C)cc1S(=O)(=O)N1CCCC(C(=O)N2CCN(c3ccccc3)CC2)C1 (stereo not given)	22.4 µM [falling, single point]	
CC1CCC(C(C)C)C(OC(=O)Cn2c(COc3ccccc3)[n+](C)c3ccccc32)C1 (stereo not given)	25.1 µM [falling, single point]	
CN(C)C(=O)Oc1ccc(Br)cc1C(=O)Nc1ccc(F)c(Cl)c1	2.51 µM [falling, partial curve]	

Further records.

Compound	AC50 [1]	AC50 [2]
COc1ccc(C(Nc2ccccc2)P(=O)(Oc2ccccc2)Oc2ccccc2)cc1 (stereo not given)	4.11 µM [rising, single point]	
Cc1ccc(C)c(NC(=O)CN(C)C(=O)Cn2c(=O)oc3ccccc32)c1	20.6 µM [falling, single point]	
COC(=O)[C@@H](N)CCCN=C(N)N[N+](=O)[O-]	35.5 µM [falling, partial curve, poor fit]	
O=C(Cc1ccccc1)NC(Cc1ccc(Cl)cc1)C(=O)O (stereo not given)	5.62 µM [falling, partial curve, poor fit]	
C=CCN(CC=C)Cc1c[nH]c2ccccc12	35.5 µM [falling, single point]	
O=S(=O)(c1ccc(Cl)cc1)N1CN2CCN(C2)C1	0.206 µM [falling, full curve, poor fit]	
NNC(=O)c1ccc(O)cc1	1.46 µM [falling, full curve]	4.61 µM [falling, partial curve]
N#CCCn1cc(C(=O)Nc2ccc([N+](=O)[O-])cc2)c(-c2ccc3c(c2)OCCO3)n1		13 µM [falling, partial curve, poor fit]
O=c1[nH]c(=S)n(CCC2=CCCCC2)c(O)c1C=NC1CCN(Cc2ccccc2)CC1	5.01 µM [rising, single point]	
O=C(Nc1cccc2ccccc12)N1CCC2(CC1)OCCO2	14.1 µM [falling, single point]	
COc1ccccc1-n1c(O)c(C=NCc2ccc3c(c2)OCO3)c(=O)[nH]c1=O	0.291 µM [rising, full curve, poor fit]	
CCOCN(C(=O)CCl)c1c(C)cccc1CC	20.6 µM [falling, partial curve, poor fit]	
O=C(NC1(C(F)(F)F)Oc2ccc(Cl)cc2O1)N1CCC2(CC1)OCCO2 (stereo not given)	23.1 µM [rising, partial curve, poor fit]	
CC(C)(C)NCC(O)c1cc(Cl)c(N)c(Cl)c1 (stereo not given)	29.1 µM [rising, single point]	
COC(=O)C1=C(c2ccc(Cl)c(C(F)(F)F)c2)C[C@@H]2CC[C@H]1N2C(=O)NCC1CC1	16.4 µM [falling, single point]	
Cc1ccc(CNc2nc(-c3cccnc3)nc3ccccc23)cc1	22.4 µM [falling, single point]	
O=P(O)(CP(=O)(c1ccccc1)c1ccccc1)c1ccccc1	20 µM [falling, partial curve]	
Cc1ccccc1-[n+]1c(-c2ccccc2)cc(-c2ccccc2)cc1-c1ccccc1	13 µM [falling, partial curve, poor fit]	
O=C(N/N=C/c1c(O)n(CCc2ccccc2)c(=O)[nH]c1=O)c1ccccc1	2.51 µM [falling, full curve, poor fit]	
